The record followed here is PMC12040169 (PLOS Biology, 2025).

Some of the results follow.

The experiment deals with T1, CTL2-GFP (C. trachomatis L2/434/Bu, GFP-expressing).
T1 construct: L2/434/Bu, GFP-expressing
Also on record: species or system HeLa; Intracellular C. trachomatis growth in HeLa cells, bulk GFP fluorescence relative to DMSO. The following applies: bulk GFP, single well; 28.5 h, 10 µM; inhibitor.
`CSCCCNC(=O)c1ccc2[nH]ccc2c1` [CBK149056]: the “% of control remaining” value was found to be 126.206%. To `CS(=O)(=O)c1ccc(-c2cccc(COC3CCN(C(=O)Cc4ccc(Cl)cc4)CC3)c2)cc1` [CBK149504] belongs 76.2282%. For the molecule `CC(C)(C)NC(=O)Cn1ccc2ccnc(-c3cccs3)c21` [CBK284737], the “% of control remaining” value is 184.068%.

For the molecule `CC(=O)Nc1n[nH]c(SCCc2ccccc2)n1` [CBK262514], the “% of control remaining” value is listed as 100%. Regarding `CCC(C)NC(=O)Cn1cccc2cc(C3CCNCC3)nc1-2` (stereo not shown) [CBK284681], the “% of control remaining” value was determined as 116.207%.

With `CC(C)(O)C1(C)OC(NC2C3CC4CC(C3)CC2C4)=NC1=O` (stereo not shown) [CBK126370], the “% of control remaining” value was 97.4331%. As for `CC(C)CN1CCC(C(=O)NC(c2ccc(Cl)cc2)c2cnccn2)CC1` (stereo not shown) [CBK148026], the figure is 124.072%; as for `O=C(Nc1nc(-c2ccncc2)cs1)c1sc2ccccc2c1Cl` [CBK287562], 128.109%. To `COc1cc(Cl)cc(C2NC(=S)NC(c3ccccc3)=C2C(C)=O)c1OCC(=O)O` (stereo not shown) [CBK268801] belongs 143.575%; to `O=C(CSc1nn2cnnc2s1)Nc1ccc(I)cc1` [CBK268913], 111.923%. For the molecule `N#Cc1ccccc1NC(=O)CSc1cnn[nH]1` [CBK269795], the “% of control remaining” value was 122.887%.

As to `Cc1ccc(N2CCCn3c2nc2c3c(=O)n(CC(=O)O)c(=O)n2C)cc1` [CBK286740], the “% of control remaining” value was 115.252%.

For `CCc1nnc(NC(=O)CCc2ccccc2)s1` [CBK057943], the “% of control remaining” value stood at 114.214%. Turning to `COc1ccc2nc(NC(=O)c3cnc(-c4ccc(Cl)cc4)c(-c4cccnc4)c3)sc2c1` [CBK037576], the “% of control remaining” value amounted to 165.964%. As for `CCOC(=O)c1sc(NS(=O)(=O)c2ccc(Cl)c(Cl)c2)nc1C` [CBK077228], the figure is 102.371%; as for `COC(=O)Cc1ccc(NC(=S)N2CCC(C(N)=O)(N3CCCCC3)CC2)cc1` [CBK266101], 107.644%. As to `COCCN1C(=O)C2(CC(=O)N(CCOc3ccccc3)C2=O)c2ccccc21` (stereo not shown) [CBK075322], the “% of control remaining” value amounted to 111.385%. As for `Cc1ccc(S(=O)(=O)NCCN2CCN(S(=O)(=O)c3ccc(C)cc3)CC2)cc1` [CBK265461], the figure is 133.449%; as for `COc1ccc([C@@]23CCN(C(=O)Nc4ccc(F)c(F)c4F)C[C@@H]2CN(C)C3)cc1OC` [CBK074305T], 87.0802%. As for `COC(=O)c1ccc(N2CCN(Cc3cnoc3C)C(C)C2)cc1` (stereo not shown) [CBK306442], the figure is 117.761%; as for `CCn1c(SCC(N)=O)nnc1C(C)Oc1ccc(C)c(C)c1` (stereo not shown) [CBK270289], 169.728%. To `Cc1cc(C)c2c(n1)oc1c(Cl)ncnc12` [CBK008822] belongs 139.654%; to `O=C(Nc1cccc(Cl)c1Cl)c1cnccn1` [CBK288243], 109.181%; to `CCN1CC2(CCCN(Cc3cncn3C3CCCCC3)C2)CCC1=O` (stereo not shown) [CBK307223], 118.047%. For the molecule `O=C(COc1ccccc1)N1CCN(Cc2ccccn2)CC1` [CBK073265G], the “% of control remaining” value is recorded as 100%. Turning to `Nc1nnc(C(F)(F)F)o1` [CBK023457], the “% of control remaining” value is 88.401%. To `CC(=O)Nc1ccc(-c2cncc(N(CCO)CCO)n2)cc1` [CBK065789] belongs 166.186%; to `Cc1csc2c(N3CCC(OCCN4CCCC4)CC3)ncnc12` [CBK304095], 93.9372%.

`CCN(Cc1ccccc1)C(=O)NCCCSC` [CBK155214]: the “% of control remaining” value stood at 100%. As for `Cc1ccc(-c2nccnc2OC2CCCCC2)c(C)c1` [CBK106983], the figure is 114.528%; as for `COc1cccc(CCNCC(O)COc2ncnc3ccccc23)c1` (stereo not shown) [CBK028127T], 117.546%. As for `CCN(CC)CCN1CCN(c2cc(-c3cccnc3)ncn2)CC1` [CBK036957], the figure is 96.4091%; as for `CC1=C(C(=O)Nc2ccccc2)C(c2ccccc2)C(C#N)=C(SCc2ccncc2)N1` (stereo not shown) [CBK267448], 142.321%; as for `O=C(NC(c1ccc(-c2ccccc2)cc1)c1cnccn1)C1CCN(CCCN2C(=O)C3CCCCC3C2=O)CC1` (stereo not shown) [CBK147856], 99.1709%. To `O=C(NCCc1c[nH]c2ccc(Cl)cc12)c1ccc(Cl)cc1Br` [CBK159755] belongs 10.3072%; to `CCN(CC)CCNC(=O)c1cccc(Nc2cncc(-c3ccc(O)cc3)n2)c1` [CBK122671], 123.16%. As for `O=C(Nc1nc(-c2cccnc2)cs1)c1cccc(N2C(=O)CCC2=O)c1` [CBK287564], the “% of control remaining” value is 108.118%.

Take `CCn1ncc2c1CCCC2NC1CCN(CC(F)(F)F)C1=O` (stereo not shown) [CBK305206]: the “% of control remaining” value worked out at 121.904%. To `O=C(O)CC(Cc1ccc(Br)cc1)C(=O)Nc1ccccc1` (stereo not shown) [CBK262714] belongs 103.557%; to `O=C1NC2(CCc3ccccc31)CCN(C/C=C/c1cccnc1)C2` (stereo not shown) [CBK284622], 167.12%; to `O=S(=O)(CCSc1ccc(Cl)cc1)Oc1ccccc1` [CBK261021], 94.044%. As for `Cc1nc(C2CCCN(C(=O)CCn3cccn3)C2)c2sccn12` (stereo not shown) [CBK285234], the figure is 137.555%; as for `COC(=O)C(=O)N1CC[C@H]2NC(=O)N(c3ccc(C(C)C)cc3)C(=O)[C@H]21` [CBK289287], 108.598%.

Regarding `Cc1cc(C)cc(OCC(=O)Nc2ccc3[nH]c(=O)[nH]c3c2)c1` [CBK269676], the “% of control remaining” value was determined as 104.11%. To `CCSc1nnc(-c2cccnc2)n1Cc1ccccc1` [CBK076664] belongs 133.474%; to `Cn1cc(C2CCCCCN2S(=O)(=O)c2ccc(F)cc2)cn1` (stereo not shown) [CBK284739], 96.4851%. Consider `COc1cc(CN(C)Cc2cccc3ccccc23)c([N+](=O)[O-])cc1OC` [CBK261850], for which the “% of control remaining” value is on record as 95.6249%.

As for `Cc1nc(NS(=O)(=O)c2ccc(Oc3ccccc3)cc2)sc1C(=O)O` [CBK045566], the “% of control remaining” value was 134.389%.

Regarding `CC(C)NC(=O)/C(=C/c1c[nH]c2ncccc12)c1ccccc1` [CBK115357], the “% of control remaining” value worked out at 127.606%. Regarding `CC(C)C(=O)N1CCC(c2nc3ccc(F)cc3cc2N)CC1` [CBK284656], the “% of control remaining” value amounted to 156.022%. To `COc1ncccc1CNC(=O)Cn1ccc(=O)[nH]c1=O` [CBK305596] belongs 98.7931%. To `Cc1ccc2c(c1)OC1(CCN(C(=O)c3cc4c(C)nn(C)c4s3)CC1)CC2=O` [CBK166037] belongs 113.67%.
